Results are given in words; binding and its absence hold for the method and conditions named. Binding seen in cells or lysates may run through a third protein. Some binding calls cover weakened binding; strength is not graded here.
Experiments:
[1] = molecular target: Hyperplastic Discs (Hyd), endogenous (Drosophila melanogaster (endogenous in CL8 cells)) (UniProt P51592); assay: co-IP; endogenous proteins in Drosophila CL8 cell lysate (Triton lysis buffer: 50mM Tris pH 7.5, 100mM NaCl, 2mM EDTA, 1% Triton X-100); IP with Hyd antibody (M19) or control IgG, 4°C; Western blot for Ci^155
[2] = molecular target: Sgg-FLAG (Shaggy, the Drosophila GSK3β homologue) (Drosophila melanogaster) (UniProt P18431); assay: co-IP; S2 cells co-transfected with hyd (mutant) and sgg-FLAG constructs; FLAG-affinity purified complexes analysed by Western blot
[3] = molecular target: HS-Hyd (HA-Strep tagged Hyperplastic Discs, wild type) (Drosophila melanogaster) (UniProt P51592); assay: pull-down; HS-Hyd purified from transfected S2 cells on Streptactin-affinity resin; control or HS-Hyd-loaded beads incubated with Sgg-FLAG expressing S2 cell lysate, washed, blotted for Sgg-FLAG; only the target purified
[4] = molecular target: Haemagglutinin-Streptavidin-(HS)-EDD (human) (UniProt O95071); assay: pull-down; HEK293 cells transfected with HS-EDD and Myc-GLI2; Streptactin-mediated purification of HS-EDD from the lysate; Western blot for Myc-GLI2

Sequences of proteins named here, by UniProt entry; tags and fusion partners are left off. A change or cut given only in a name is not applied to a line headed by its entry.
UniProt P51592: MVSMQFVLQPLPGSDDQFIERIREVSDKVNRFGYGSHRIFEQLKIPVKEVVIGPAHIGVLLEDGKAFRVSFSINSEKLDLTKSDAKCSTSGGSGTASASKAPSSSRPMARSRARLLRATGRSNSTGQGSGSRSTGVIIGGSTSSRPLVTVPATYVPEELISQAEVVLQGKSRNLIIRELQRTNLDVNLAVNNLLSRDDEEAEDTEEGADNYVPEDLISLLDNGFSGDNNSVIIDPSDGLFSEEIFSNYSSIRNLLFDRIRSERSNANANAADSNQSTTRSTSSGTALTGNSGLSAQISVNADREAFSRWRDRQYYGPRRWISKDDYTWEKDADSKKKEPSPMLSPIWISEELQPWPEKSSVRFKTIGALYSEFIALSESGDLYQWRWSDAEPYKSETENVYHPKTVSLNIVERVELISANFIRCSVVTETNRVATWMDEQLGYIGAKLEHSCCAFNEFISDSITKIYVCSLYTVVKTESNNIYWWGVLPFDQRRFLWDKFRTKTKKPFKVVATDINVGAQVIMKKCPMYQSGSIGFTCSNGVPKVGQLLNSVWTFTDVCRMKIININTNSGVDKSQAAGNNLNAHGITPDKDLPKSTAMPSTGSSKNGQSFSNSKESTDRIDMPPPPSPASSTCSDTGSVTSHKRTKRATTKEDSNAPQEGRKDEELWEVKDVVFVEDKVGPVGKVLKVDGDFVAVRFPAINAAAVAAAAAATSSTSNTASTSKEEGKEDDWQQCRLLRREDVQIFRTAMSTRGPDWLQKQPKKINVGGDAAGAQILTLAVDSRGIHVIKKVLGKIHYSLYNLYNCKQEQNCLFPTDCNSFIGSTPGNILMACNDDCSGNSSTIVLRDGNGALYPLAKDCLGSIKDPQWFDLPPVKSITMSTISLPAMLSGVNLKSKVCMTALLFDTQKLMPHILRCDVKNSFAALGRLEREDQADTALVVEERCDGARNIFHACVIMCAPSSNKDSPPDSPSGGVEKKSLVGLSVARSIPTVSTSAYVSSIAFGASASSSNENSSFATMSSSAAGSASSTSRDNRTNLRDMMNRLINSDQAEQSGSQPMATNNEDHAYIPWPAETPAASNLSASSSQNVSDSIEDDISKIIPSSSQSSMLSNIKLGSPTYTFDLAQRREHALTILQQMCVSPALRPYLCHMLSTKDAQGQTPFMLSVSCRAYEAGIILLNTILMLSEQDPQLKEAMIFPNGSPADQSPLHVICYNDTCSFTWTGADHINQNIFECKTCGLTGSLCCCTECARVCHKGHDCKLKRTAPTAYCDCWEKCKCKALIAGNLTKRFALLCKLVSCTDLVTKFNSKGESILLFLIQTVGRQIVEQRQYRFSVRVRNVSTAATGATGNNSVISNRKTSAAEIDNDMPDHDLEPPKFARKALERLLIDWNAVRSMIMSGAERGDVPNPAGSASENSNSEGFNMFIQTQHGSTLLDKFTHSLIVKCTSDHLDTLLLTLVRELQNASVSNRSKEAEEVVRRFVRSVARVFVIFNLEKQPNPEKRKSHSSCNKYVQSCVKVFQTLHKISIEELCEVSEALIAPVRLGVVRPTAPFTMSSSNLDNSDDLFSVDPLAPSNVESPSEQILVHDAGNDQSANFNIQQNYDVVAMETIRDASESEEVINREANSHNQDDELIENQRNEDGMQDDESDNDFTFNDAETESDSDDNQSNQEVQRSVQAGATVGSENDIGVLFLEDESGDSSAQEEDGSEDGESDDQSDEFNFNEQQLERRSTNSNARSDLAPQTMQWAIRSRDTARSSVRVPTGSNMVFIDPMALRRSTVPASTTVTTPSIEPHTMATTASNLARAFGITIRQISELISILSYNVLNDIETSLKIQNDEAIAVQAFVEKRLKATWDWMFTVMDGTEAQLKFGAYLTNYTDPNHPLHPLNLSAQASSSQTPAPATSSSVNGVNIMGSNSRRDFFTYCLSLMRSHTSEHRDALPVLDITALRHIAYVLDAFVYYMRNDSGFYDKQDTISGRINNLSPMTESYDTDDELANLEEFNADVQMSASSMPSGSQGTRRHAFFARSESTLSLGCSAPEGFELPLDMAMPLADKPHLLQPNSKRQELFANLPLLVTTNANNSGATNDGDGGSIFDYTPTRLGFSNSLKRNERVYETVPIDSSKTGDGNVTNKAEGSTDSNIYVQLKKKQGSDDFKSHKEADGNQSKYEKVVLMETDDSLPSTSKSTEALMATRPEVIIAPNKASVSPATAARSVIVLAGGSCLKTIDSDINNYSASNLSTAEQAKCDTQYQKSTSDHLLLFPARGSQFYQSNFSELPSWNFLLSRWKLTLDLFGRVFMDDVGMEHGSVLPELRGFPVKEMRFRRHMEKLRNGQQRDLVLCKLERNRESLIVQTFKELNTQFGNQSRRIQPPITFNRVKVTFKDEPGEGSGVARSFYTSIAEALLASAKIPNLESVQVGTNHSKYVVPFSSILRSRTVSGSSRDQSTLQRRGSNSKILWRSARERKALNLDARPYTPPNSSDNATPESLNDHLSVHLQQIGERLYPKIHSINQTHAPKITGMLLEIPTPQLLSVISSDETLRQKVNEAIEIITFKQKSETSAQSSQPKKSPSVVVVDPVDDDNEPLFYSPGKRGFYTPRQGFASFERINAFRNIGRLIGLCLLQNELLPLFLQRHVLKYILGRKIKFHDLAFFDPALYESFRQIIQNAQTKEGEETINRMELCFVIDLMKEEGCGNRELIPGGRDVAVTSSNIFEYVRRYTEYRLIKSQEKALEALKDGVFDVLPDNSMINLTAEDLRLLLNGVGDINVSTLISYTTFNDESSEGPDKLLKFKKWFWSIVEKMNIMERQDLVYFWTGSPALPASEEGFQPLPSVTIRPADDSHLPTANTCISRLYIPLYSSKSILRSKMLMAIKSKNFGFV
UniProt P18431: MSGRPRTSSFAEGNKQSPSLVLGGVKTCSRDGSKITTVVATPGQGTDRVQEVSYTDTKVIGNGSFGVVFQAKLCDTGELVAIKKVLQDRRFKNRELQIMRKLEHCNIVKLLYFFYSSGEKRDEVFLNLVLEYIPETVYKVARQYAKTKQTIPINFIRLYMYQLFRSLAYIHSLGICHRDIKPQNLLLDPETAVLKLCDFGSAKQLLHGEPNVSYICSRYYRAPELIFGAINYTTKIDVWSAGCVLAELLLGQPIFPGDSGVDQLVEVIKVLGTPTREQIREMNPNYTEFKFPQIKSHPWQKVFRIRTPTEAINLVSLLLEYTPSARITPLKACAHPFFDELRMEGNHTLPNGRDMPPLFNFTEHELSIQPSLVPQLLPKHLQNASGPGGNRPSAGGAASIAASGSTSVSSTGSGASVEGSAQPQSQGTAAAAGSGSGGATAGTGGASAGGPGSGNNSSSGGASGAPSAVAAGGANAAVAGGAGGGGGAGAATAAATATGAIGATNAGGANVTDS
UniProt P19538: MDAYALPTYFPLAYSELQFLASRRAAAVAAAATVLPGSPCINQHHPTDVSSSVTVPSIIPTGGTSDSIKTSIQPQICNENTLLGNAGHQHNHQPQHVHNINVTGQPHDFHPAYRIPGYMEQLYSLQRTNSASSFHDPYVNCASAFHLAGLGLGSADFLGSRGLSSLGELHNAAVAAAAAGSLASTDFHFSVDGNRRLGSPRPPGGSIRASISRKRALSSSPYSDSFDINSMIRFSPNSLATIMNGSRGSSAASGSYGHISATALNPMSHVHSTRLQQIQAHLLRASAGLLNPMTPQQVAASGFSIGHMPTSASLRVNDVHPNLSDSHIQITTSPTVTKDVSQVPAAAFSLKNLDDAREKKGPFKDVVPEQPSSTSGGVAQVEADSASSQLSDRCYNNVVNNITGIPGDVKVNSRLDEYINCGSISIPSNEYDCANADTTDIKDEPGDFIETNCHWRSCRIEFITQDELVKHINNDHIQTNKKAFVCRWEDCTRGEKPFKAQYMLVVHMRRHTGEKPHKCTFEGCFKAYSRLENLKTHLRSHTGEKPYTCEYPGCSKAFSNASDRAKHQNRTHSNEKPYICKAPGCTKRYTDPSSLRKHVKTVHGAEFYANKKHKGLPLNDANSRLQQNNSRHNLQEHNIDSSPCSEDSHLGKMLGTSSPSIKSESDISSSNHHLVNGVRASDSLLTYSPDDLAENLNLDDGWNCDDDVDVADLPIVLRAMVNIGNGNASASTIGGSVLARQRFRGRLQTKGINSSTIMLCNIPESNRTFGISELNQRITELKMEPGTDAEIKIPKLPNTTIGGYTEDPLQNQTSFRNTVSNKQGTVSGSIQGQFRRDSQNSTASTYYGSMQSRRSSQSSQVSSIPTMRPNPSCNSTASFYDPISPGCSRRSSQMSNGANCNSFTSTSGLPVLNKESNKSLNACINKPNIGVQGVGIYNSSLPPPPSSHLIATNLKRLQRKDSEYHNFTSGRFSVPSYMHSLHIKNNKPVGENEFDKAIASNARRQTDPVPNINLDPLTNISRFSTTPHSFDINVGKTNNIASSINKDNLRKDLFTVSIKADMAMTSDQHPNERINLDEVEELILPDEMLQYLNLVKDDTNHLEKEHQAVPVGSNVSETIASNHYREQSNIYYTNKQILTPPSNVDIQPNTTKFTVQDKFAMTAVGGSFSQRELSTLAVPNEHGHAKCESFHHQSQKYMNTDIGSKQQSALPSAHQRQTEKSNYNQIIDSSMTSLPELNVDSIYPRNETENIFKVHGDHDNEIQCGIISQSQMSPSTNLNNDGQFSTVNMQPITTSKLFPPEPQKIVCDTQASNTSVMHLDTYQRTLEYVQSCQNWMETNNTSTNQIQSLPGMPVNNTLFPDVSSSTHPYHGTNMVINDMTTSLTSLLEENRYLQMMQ
UniProt P10070: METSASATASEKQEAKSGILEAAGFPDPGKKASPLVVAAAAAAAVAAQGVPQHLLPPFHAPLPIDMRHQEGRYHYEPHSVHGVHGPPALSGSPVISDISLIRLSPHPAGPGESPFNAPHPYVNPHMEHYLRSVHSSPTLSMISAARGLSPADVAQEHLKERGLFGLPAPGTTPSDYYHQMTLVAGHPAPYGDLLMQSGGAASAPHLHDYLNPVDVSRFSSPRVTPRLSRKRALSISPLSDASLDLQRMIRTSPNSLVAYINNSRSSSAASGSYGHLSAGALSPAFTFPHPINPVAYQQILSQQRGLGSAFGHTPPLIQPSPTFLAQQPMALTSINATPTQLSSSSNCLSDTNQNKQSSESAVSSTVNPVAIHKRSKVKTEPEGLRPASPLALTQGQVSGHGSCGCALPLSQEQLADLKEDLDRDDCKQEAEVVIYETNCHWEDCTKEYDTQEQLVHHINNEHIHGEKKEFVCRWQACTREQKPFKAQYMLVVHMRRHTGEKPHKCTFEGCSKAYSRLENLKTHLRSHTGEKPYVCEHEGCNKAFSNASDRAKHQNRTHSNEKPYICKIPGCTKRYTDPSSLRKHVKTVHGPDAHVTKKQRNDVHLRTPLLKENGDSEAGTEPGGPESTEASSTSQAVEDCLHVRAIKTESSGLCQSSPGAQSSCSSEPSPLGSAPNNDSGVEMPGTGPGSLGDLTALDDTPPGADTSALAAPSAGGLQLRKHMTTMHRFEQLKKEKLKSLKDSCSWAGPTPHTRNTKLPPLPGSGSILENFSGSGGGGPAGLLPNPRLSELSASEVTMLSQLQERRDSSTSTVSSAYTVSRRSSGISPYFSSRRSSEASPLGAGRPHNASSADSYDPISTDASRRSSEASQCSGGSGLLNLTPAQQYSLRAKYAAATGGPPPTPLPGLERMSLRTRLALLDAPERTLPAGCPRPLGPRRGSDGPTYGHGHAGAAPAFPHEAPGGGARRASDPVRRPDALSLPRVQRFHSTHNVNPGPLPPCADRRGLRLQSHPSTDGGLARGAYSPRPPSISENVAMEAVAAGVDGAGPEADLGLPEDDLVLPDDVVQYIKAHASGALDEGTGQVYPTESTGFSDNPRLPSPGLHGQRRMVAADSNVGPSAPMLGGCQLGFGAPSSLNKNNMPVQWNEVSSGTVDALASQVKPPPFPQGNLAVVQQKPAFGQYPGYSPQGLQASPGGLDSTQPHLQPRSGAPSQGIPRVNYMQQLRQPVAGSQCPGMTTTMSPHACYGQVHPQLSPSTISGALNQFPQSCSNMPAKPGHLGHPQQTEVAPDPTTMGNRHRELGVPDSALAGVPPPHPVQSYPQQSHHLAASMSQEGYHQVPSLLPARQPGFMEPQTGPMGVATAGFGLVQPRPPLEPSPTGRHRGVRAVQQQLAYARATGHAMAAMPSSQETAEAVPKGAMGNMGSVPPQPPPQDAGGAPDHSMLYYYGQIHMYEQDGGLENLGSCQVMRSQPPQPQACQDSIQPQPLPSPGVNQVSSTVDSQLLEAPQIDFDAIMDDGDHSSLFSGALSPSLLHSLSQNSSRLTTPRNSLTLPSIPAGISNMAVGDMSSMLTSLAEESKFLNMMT

Substance | binding [2] | other results
Cubitus interruptus, full-length 155kDa form (Ci^155), endogenous (from UniProt P19538 1-1397) | – | binding [1]: binds
HS-Hyd (HA-Strep tagged Hyperplastic Discs, wild type) (from UniProt P51592 1-2885) | binds | –
Hyd HECT^mt (C2854A) (from UniProt P51592 1-2885) | binds | –
Hyd UBR^mt (C1272A+C1274A) (from UniProt P51592 1-2885) | binds | –
Sgg-FLAG (Shaggy, the Drosophila GSK3β homologue) (from UniProt P18431 1-514) | – | binding [3]: binds
full-length Myc-tagged GLI2 (from UniProt P10070 1-1586) | – | binding [4]: binds
